The record followed here is paper PMC7405549.

These are yes or no findings as the source states them, for the method shown. In cells and extracts the contact can be indirect. Binding calls can cover weak binding; strength is not graded here.

The test has as its target Acheron/LARP6 (Manduca sexta) (Manduca sexta (endogenous in ISMs)). As to the kind of experiment: co-IP; day 18 Manduca ISM extracts, anti-Acheron antibody, protein A sepharose; 10 mM Tris pH 7.4, 1% triton, 0.5% NP-40, 150 mM NaCl; immunoblot with anti-mouse BAD antibody.

B1: Manduca BBH1 (BAD/BNIP3 homology-1) (protein, UniProt A0A861LZ68 1-192)
chain: MMESKSLLPEEMAESWVELNSGGGLAAVENEYIRLLREAQRESRDSSVRHSRASSVKGSPKSPPNSPNLEPSTEDELKGVYINCWRDDSNDWVWEWSSRPDQVPPKDWRFKHPASARGPPSATSSIEVLEQQLAPPPMQQSHCLSVRRTCLFSRGAIAAVLVTNIVSLLLGAGIGVWLSKKGMLPPRLIIIN
For B1, the binding result is reported as “binds”.
